Source: PMC6895207
These are yes or no findings as the source states them, for the method shown.

Target: SPOR domain of rare lipoprotein A (RlpA) from P. aeruginosa, wild type (Pseudomonas aeruginosa PAO1) (UniProt Q9X6V6)
Assay: native MS; non-denaturing electrospray MS (MicrOTOF-QII) of the domain alone, 20 μM, in 1 M ammonium acetate, pH 6.6; both purified

binding: no binding (tested: 20 μM)
B1: SPOR domain of rare lipoprotein A (RlpA) from P. aeruginosa, wild type (domain or fragment, UniProt Q9X6V6 264-342)
chain: ADGLYLQVGAFANPDAAELLKAKLSGVTAAPVFISSVVRNQQILHRVRLGPIGSADEVSRTQDSIRVANLGQPTLVRPD
